# Laboratory results from publication PMC4811582.
# By UniProt entry, the sequences of proteins in these tests, tags left out.
# UniProt Q03135: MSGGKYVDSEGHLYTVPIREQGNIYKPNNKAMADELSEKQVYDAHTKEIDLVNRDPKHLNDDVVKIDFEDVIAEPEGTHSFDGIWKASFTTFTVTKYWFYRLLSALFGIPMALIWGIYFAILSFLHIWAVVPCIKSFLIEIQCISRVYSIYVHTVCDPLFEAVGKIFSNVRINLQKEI
# No constants are given. Whether binding was seen depends on the method and setting. Binding seen in cells or lysates may run through a third protein. Some binding calls cover weakened binding; strength is not graded here.
# B1: adiponectin receptor 1 (receptor, UniProt Q96A54 1-375)
# chain: MSSHKGSVVAQGNGAPASNREADTVELAELGPLLEEKGKRVIANPPKAEEEQTCPVPQEEEEEVRVLTLPLQAHHAMEKMEEFVYKVWEGRWRVIPYDVLPDWLKDNDYLLHGHRPPMPSFRACFKSIFRIHTETGNIWTHLLGFVLFLFLGILTMLRPNMYFMAPLQEKVVFGMFFLGAVLCLSFSWLFHTVYCHSEKVSRTFSKLDYSGIALLIMGSFVPWLYYSFYCSPQPRLIYLSIVCVLGISAIIVAQWDRFATPKHRQTRAGVFLGLGLSGVVPTMHFTIAEGFVKATTVGQMGWFFLMAVMYITGAGLYAARIPERFFPGKFDIWFQSHQIFHVLVVAAAFVHFYGVSNLQEFRYGLEGGCTDDTLL
# Molecular target: caveolin-1 (human (endogenous in HUVEC)) (UniProt Q03135)
# Test: co-IP; HUVEC lysates pre-cleared with nonimmune IgG; immunoprecipitated with 2 ug anti-Cav1 antibody and protein A plus-Sepharose overnight at 4°C; immunoblot with anti-AdipoR1; cells with or without APN (5 ug/ml)
binder,measurement,value
B1,binding,binds
